The values that follow come from US20180339963A1, “ANTICONVULSANT CARBAMATE DERIVATIVES” (Yissum Research Development Company of the Hebrew …, priority 2017, published 2018).

The subject of one data set is 6 Hz psychomotor seizure. As to the kind of experiment: 6 Hz psychomotor seizure test in mice. The following applies: i.p.
The test system of data set [1] is maximal electroshock seizure (MES). As to the kind of experiment: Maximal electroshock seizure (MES) test in rats. For orientation: Protection in the maximal electroshock model is a classic sign of anticonvulsant action.
Data set [2] shares this test system. Put plainly: Maximal electroshock seizure (MES) test in mice. Conditions: i.p.
Data set [3] concerns pentylenetetrazol-induced seizure (scMet). Put plainly: Subcutaneous metrazol seizure test (scMet) in mice. The following applies: i.p.

Structures are written as SMILES. Where “and” joins values, the source holds several entries; their conditions need not be identical. Equal entries are not always repeated. Where only a bound is given, the exact number is not on record here.

In the case of `CCC(C)CCOC(=O)Nc1ccc(S(N)(=O)=O)cc1` (stereo not drawn) [Compound 10, 3-methylpentyl(4-sulfamoylphenyl)carbamate], the “PI (TD50/ED50), 6 Hz” value with 6 Hz psychomotor seizure was determined as 7.9. Further, the “PI (TD50/ED50), MES” value in data set [1] (i.p.) was > 10 and >19.2; in data set [1] (p.o.), greater than 17.8; in data set [2], 59 and 50. For the same compound, the “PI (TD50/ED50), scMet” value in data set [3] is given as 10.

On to `CCCC(COC(=O)Nc1ccc(S(N)(=O)=O)cc1)C(C)CC` (stereo not drawn) [Compound 1, 3-methyl-2-propylpentyl (4-sulfamoylphenyl)carbamate], for which the “PI (TD50/ED50), 6 Hz” value with 6 Hz psychomotor seizure is greater than 6.8. In addition, in data set [2], the “PI (TD50/ED50), MES” value is greater than 3.6. For the same compound, the “PI (TD50/ED50), scMet” value in data set [3] is recorded as greater than 1.6.

With `CCC(C)C(C)OC(=O)Nc1ccc(S(N)(=O)=O)cc1` (stereo not drawn) [Compound 9, 3-methylpentan-2-yl (4-sulfamoylphenyl)carbamate], in the data set on 6 Hz psychomotor seizure, the “PI (TD50/ED50), 6 Hz” value was greater than 11.3. The figures for the “PI (TD50/ED50), MES” value in data set [1] (p.o.) and in data set [2] were greater than 21.4 and greater than 19.4, respectively. For the same compound, the “PI (TD50/ED50), scMet” value in data set [3] is on record as greater than 1.6.
